Some entries share one result that the patent states for a list of compounds. For at least one compound, name, drawing or mass did not settle the structure.
Experiment: Conventional renal scintigraphy (renogram) with radionuclide-bound tracers (FIG. 1)

With `O=C([O-])CN(CCN(CC(=O)[O-])CC(=O)[O-])CCN(CC(=O)[O-])CC(=O)[O-].[99Tc+4]` [^99mTc DTPA, ^99mTc Diethylenetriamine-Pentaacetic Acid] the “time for tracer to filter through the kidney and into the bladder” value was “less than 20 minutes”.

From patent publication US11666671B2, “Spatial mapping of kidney functions” (Northwestern University, priority 2018, dated 2023)
